In doi:10.1101/428854:
Where two headings read alike, the source gives them in different places. Results are given in words; binding and its absence hold for the method and conditions named. For part of these data: In cells and extracts the contact can be indirect. Some binding calls cover weakened binding; strength is not graded here. For part of these data: Sequences can lack the tags named with a protein. One block for each molecule: values may come before it.

Amino acid sequences for entries named in this document (tags omitted). A change or cut given only in a name is not applied to a line headed by its entry. Residues count along the entry.
UniProt Q9LX66: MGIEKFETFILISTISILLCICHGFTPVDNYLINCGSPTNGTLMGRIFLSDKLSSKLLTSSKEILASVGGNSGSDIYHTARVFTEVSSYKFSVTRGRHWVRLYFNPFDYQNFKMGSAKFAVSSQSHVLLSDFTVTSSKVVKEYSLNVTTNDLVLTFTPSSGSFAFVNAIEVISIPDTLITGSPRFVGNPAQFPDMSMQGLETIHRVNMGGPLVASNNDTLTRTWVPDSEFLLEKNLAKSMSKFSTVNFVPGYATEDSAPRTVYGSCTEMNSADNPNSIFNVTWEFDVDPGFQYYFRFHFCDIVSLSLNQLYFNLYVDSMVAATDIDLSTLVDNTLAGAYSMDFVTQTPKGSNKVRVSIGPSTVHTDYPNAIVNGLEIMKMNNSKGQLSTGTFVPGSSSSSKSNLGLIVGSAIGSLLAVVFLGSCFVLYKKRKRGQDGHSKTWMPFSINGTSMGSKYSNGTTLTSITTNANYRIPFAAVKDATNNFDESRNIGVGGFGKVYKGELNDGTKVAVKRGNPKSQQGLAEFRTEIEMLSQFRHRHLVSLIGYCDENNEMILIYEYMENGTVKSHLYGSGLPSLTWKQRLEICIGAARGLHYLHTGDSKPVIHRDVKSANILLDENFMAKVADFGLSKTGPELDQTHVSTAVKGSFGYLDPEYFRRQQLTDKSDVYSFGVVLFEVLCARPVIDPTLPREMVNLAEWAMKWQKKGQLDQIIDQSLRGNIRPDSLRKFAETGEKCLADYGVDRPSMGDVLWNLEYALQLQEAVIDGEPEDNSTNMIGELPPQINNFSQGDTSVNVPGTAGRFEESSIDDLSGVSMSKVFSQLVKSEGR
HERK1-GFP (pFER::HERK1-GFP) transiently expressed in N. benthamiana: residues 25-830 of Q9LX66

How the values were obtained:
[1] = molecular target: T1, extracellular domain of FERONIA (FER-ECD) (Arabidopsis thaliana) (UniProt Q9SCZ4); assay: two-hybrid
T1 sequence: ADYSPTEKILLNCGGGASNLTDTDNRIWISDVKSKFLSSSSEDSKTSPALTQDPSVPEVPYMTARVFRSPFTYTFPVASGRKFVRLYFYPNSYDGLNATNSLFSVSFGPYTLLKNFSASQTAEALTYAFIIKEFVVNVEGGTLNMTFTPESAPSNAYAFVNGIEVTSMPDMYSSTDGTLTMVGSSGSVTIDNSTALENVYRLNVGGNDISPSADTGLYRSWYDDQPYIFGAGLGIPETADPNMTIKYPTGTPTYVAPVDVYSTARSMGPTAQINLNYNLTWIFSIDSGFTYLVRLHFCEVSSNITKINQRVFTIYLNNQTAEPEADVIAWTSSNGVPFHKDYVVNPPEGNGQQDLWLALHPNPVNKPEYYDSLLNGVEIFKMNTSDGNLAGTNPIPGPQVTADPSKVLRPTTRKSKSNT

[2] = molecular target: extracellular domain of HERK1 (HERK1-ECD) (Arabidopsis thaliana) (UniProt Q9LX66); assay: two-hybrid
[3] = molecular target: cytosolic kinase domain of FERONIA (FER-KIN) (Arabidopsis thaliana) (UniProt Q9SCZ4); assay: two-hybrid
[4] = molecular target: HERK1-GFP (pFER::HERK1-GFP) transiently expressed in N. benthamiana (Arabidopsis thaliana) (UniProt Q9LX66); assay: co-IP
[5] = molecular target: T1, extracellular domain of FERONIA (FER-ECD) (Arabidopsis thaliana); assay: two-hybrid; remark: listed apart in the source
[6] = molecular target: extracellular domain of HERK1 (HERK1-ECD) (Arabidopsis thaliana) (UniProt Q9LX66); assay: two-hybrid; remark: listed apart in the source

binding [1]: binds
binding [2]: binds
Molecule: extracellular domain of HERK1 (HERK1-ECD) (from UniProt Q9LX66 24-405) (domain or fragment)

binding [3]: binds weakly
Molecule: cytosolic kinase domain of HERK1 (HERK1-KIN) (from UniProt Q9LX66 429-830) (domain or fragment)

binding [4]: binds
B1: HA-LRE (p35S::HA-LRE) transiently expressed in N. benthamiana (protein, UniProt B3GS44 21-139)
chain: SSISDGVFESQTSVSGRNLRHAKKKCEVNFEYMDYKVLTKRCKGPAFPAKECCSAFKEFACPYVSQINDMNSDCAQTMFSYMNIYGNYPTGLFANECRERKDGLVCPLPPLYSHNLNAS

binding [5]: binds
binding [6]: binds
B2: extracellular domain of FERONIA (FER-ECD) (domain or fragment, UniProt Q9SCZ4 28-446)
chain: ADYSPTEKILLNCGGGASNLTDTDNRIWISDVKSKFLSSSSEDSKTSPALTQDPSVPEVPYMTARVFRSPFTYTFPVASGRKFVRLYFYPNSYDGLNATNSLFSVSFGPYTLLKNFSASQTAEALTYAFIIKEFVVNVEGGTLNMTFTPESAPSNAYAFVNGIEVTSMPDMYSSTDGTLTMVGSSGSVTIDNSTALENVYRLNVGGNDISPSADTGLYRSWYDDQPYIFGAGLGIPETADPNMTIKYPTGTPTYVAPVDVYSTARSMGPTAQINLNYNLTWIFSIDSGFTYLVRLHFCEVSSNITKINQRVFTIYLNNQTAEPEADVIAWTSSNGVPFHKDYVVNPPEGNGQQDLWLALHPNPVNKPEYYDSLLNGVEIFKMNTSDGNLAGTNPIPGPQVTADPSKVLRPTTRKSKSNT
